Results on 6 molecules are retold here after publication PMC13064845.

The chains behind the UniProt entries cited, without tags or fusion partners. Residues count along the entry.
UniProt P35441, residues 19-1170: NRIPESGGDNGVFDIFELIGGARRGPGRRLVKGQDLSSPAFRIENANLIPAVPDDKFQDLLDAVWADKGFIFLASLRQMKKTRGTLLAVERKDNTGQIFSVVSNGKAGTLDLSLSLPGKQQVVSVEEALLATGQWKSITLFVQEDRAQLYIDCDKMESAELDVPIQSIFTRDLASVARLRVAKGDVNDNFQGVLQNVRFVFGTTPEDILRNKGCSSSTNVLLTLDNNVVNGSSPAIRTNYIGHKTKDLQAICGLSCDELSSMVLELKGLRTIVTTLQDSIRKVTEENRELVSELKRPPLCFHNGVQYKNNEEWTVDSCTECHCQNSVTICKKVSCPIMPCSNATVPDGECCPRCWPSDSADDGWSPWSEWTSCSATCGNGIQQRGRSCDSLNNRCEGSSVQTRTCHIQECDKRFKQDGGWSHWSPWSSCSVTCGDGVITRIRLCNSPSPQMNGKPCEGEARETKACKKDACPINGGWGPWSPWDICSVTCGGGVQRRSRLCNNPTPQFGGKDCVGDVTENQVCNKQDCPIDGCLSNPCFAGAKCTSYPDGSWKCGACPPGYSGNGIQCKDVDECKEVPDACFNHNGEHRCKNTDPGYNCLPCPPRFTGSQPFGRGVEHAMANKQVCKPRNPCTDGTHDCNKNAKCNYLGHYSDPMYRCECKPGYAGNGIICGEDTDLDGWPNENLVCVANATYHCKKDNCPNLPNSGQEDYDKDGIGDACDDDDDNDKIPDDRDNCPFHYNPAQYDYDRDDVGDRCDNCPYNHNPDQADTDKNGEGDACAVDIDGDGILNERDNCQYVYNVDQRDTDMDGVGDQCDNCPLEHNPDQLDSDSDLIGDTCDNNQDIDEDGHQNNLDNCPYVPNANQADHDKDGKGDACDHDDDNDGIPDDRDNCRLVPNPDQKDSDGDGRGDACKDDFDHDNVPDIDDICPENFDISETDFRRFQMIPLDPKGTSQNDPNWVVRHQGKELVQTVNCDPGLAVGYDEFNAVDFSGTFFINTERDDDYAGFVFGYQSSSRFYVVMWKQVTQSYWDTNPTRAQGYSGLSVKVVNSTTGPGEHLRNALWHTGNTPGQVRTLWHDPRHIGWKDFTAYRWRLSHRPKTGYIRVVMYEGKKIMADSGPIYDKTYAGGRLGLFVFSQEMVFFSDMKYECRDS

These are yes or no findings as the source states them, for the method shown. For part of these data: In cells and extracts the contact can be indirect. Some results given as binding are weak or reduced against the parent protein; the word gives no strength. For part of these data: Where a sequence is shown, tags or fusion partners need not be part of it.

For test [1], the target named is HA-tagged TSP1 (UniProt P35441). Nature of the test: co-IP; HEK293T cells co-transfected with HA-tagged TSP1 and FBLN7-Flag (full length, deletion mutants or point mutants); precipitated in both directions for the full-length protein.
The target of test [2] is thrombospondin-1 (TSP1), immobilised in the Biacore analysis (UniProt P35441). Nature of the test: SPR; Biacore; TSP1 immobilised, sequential injections of FBLN7 at rising concentrations; both purified.

B1: FBLN7-Flag ΔSushi (lacking the sushi domain, residues 73–142) (protein, UniProt Q501P1)
chain: QSCLNKQQLLTTIRQLQQLLKGQETRFTEGIRNMKSRLAALQNTVNKMQPCHNGGTCVEGINHYRCICPPGKTGNRCQHQTQAAAPDGGEAGDPAFSRAPRCAQVEREQHCSCEAGFHLSSTTGGHSVCQDVNECEIYGQKGRPRLCMHACVNTPGSYRCTCPSGYRILADGKSCEDVDECAGPQHMCPRGTTCINTGGGFQCVNPECPEGSGNISYVKTSPFQCERNPCPMDSRPCRHLPKTISFHYLSLPSKLKTPITLFRMATASIPGHPGPNSLRFGIVGGNSRGHFVMQRSDRQTGELILTQTLEGPQTLEVDVDMSEYLERSFQANHVSKVTIFVSRYDF
As for B1, the binding result in test [1] is “binds”.

B2: FBLN7-Flag ΔN (lacking the coiled coil in N-terminus, residues 22–79) (protein, UniProt Q501P1)
chain: SCPALEAPPDGKKFGSKYLVDHEVYFTCNPGFQLVGPSSVVCLANGSWTGEQPRCRDISECSSQPCHNGGTCVEGINHYRCICPPGKTGNRCQHQTQAAAPDGGEAGDPAFSRAPRCAQVEREQHCSCEAGFHLSSTTGGHSVCQDVNECEIYGQKGRPRLCMHACVNTPGSYRCTCPSGYRILADGKSCEDVDECAGPQHMCPRGTTCINTGGGFQCVNPECPEGSGNISYVKTSPFQCERNPCPMDSRPCRHLPKTISFHYLSLPSKLKTPITLFRMATASIPGHPGPNSLRFGIVGGNSRGHFVMQRSDRQTGELILTQTLEGPQTLEVDVDMSEYLERSFQANHVSKVTIFVSRYDF
Take B2: in test [1], the binding result is listed as “binds”.

B3: fibulin-7 (FBLN7), analyte of the Biacore analysis (protein, UniProt Q501P1 25-440)
chain: QSCLNKQQLLTTIRQLQQLLKGQETRFTEGIRNMKSRLAALQNTVNKMTPDAPPVSCPALEAPPDGKKFGSKYLVDHEVYFTCNPGFQLVGPSSVVCLANGSWTGEQPRCRDISECSSQPCHNGGTCVEGINHYRCICPPGKTGNRCQHQTQAAAPDGGEAGDPAFSRAPRCAQVEREQHCSCEAGFHLSSTTGGHSVCQDVNECEIYGQKGRPRLCMHACVNTPGSYRCTCPSGYRILADGKSCEDVDECAGPQHMCPRGTTCINTGGGFQCVNPECPEGSGNISYVKTSPFQCERNPCPMDSRPCRHLPKTISFHYLSLPSKLKTPITLFRMATASIPGHPGPNSLRFGIVGGNSRGHFVMQRSDRQTGELILTQTLEGPQTLEVDVDMSEYLERSFQANHVSKVTIFVSRYDF
Take B3: the binding entry in test [2] is recorded as “binds”.

B4: full-length FBLN7-Flag (protein, UniProt Q501P1 25-440)
chain: B3 chain
Turning to B4, the binding result in test [1] is listed as “binds”.

B5: FBLN7-Flag ΔC (lacking the C-terminus, residues 374–440) (protein, UniProt Q501P1)
chain: QSCLNKQQLLTTIRQLQQLLKGQETRFTEGIRNMKSRLAALQNTVNKMTPDAPPVSCPALEAPPDGKKFGSKYLVDHEVYFTCNPGFQLVGPSSVVCLANGSWTGEQPRCRDISECSSQPCHNGGTCVEGINHYRCICPPGKTGNRCQHQTQAAAPDGGEAGDPAFSRAPRCAQVEREQHCSCEAGFHLSSTTGGHSVCQDVNECEIYGQKGRPRLCMHACVNTPGSYRCTCPSGYRILADGKSCEDVDECAGPQHMCPRGTTCINTGGGFQCVNPECPEGSGNISYVKTSPFQCERNPCPMDSRPCRHLPKTISFHYLSLPSKLKTPITLFRMATASIPGHPGPNSLR
As to B5, in test [1], the binding result was “binds”.

B6: FBLN7-Flag ΔEGF-like (lacking the EGF-like domain, residues 136–172) (protein, UniProt Q501P1)
chain: QSCLNKQQLLTTIRQLQQLLKGQETRFTEGIRNMKSRLAALQNTVNKMTPDAPPVSCPALEAPPDGKKFGSKYLVDHEVYFTCNPGFQLVGPSSVVCLANGSWTGEQPRCRHQTQAAAPDGGEAGDPAFSRAPRCAQVEREQHCSCEAGFHLSSTTGGHSVCQDVNECEIYGQKGRPRLCMHACVNTPGSYRCTCPSGYRILADGKSCEDVDECAGPQHMCPRGTTCINTGGGFQCVNPECPEGSGNISYVKTSPFQCERNPCPMDSRPCRHLPKTISFHYLSLPSKLKTPITLFRMATASIPGHPGPNSLRFGIVGGNSRGHFVMQRSDRQTGELILTQTLEGPQTLEVDVDMSEYLERSFQANHVSKVTIFVSRYDF
In the case of B6, the binding entry in test [1] is “binds”.
